Laboratory results from paper PMC4231735.
No constants are given. Whether binding was seen depends on the method and setting. Binding seen in cells or lysates may run through a third protein. Some entries that bind do so weakly or less than the wild type. Where a sequence is shown, tags or fusion partners need not be part of it.

Target: T1, TAP-tagged Rio1 (S. cerevisiae), Q12196
T1 chain: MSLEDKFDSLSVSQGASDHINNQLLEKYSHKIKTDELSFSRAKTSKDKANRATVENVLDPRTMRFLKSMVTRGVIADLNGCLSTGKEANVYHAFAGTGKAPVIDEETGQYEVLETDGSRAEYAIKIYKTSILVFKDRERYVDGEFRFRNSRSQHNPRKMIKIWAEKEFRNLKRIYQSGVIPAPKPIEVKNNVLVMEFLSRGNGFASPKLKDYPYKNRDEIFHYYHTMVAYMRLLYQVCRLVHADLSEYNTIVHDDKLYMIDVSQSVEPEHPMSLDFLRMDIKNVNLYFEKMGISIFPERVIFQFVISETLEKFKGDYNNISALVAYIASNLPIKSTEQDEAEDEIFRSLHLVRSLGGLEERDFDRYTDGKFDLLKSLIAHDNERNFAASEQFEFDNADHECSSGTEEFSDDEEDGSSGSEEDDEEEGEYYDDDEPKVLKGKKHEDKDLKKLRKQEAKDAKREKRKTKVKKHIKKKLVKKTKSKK
Assay: co-IP; tandem affinity purification (TAP) from strains expressing TAP-tagged bait; co-purified factors detected by Western blot
Settings: remark: other sources report otherwise

binding: binds
B1: Nob1, Q08444 1-459 (protein)
chain: MTENQTAHVRALILDATPLITQSYTHYQNYAQSFYTTPTVFQEIKDAQARKNLEIWQSLGTLKLVHPSENSIAKVSTFAKLTGDYSVLSANDLHILALTYELEIKLNNGDWRLRKKPGDALDASKADVGTDGKQKLTEDNKKEEDSESVPKKKNKRRGGKKQKAKREAREAREAENANLELESKAEEHVEEAGSKEQICNDENIKESSDLNEVFEDADDDGDWITPENLTEAIIKDSGEDTTGSLGVEASEEDRHVALNRPENQVALATGDFAVQNVALQMNLNLMNFMSGLKIKRIRNYMLRCHACFKIFPLPKDGKPKHFCASCGGQGTLLRCAVSVDSRTGNVTPHLKSNFQWNNRGNRYSVASPLSKNSQKRYGKKGHVHSKPQENVILREDQKEYEKVIKQEEWTRRHNEKILNNWIGGGSADNYISPFAITGLKQHNVRIGKGRYVNSSKRRS
